7 compounds from publication PMC7037546, “High Cell Selectivity and Bactericidal Mechanism of Symmetric Peptides Centered on D-Pro–Gly Pairs” (International Journal of Molecular Sciences, 2020) can be followed below.

One series relates to Gram-positive bacteria. Description: Geometric mean of MICs and therapeutic index, Gram (+). It is filed as cell-based. The following applies: MHC10/GM against Gram-positive bacteria. On the procedure:
(§1) The antimicrobial activity of the designed peptides was examined using the micro-dilution method described previously. The bacteria were cultured for 16 h in MHB at 37 °C, and the microbial suspension was diluted to a final concentration of 10^5 colony-forming units (CFU)/mL. Then, 50 µL of MHB containing different concentrations peptides (0.25–256 µM) was mixed with 50 µL of bacterial solution, and the mixture was added to a 96-well plate. […] The assays were performed three times.

Another series has as its system Gram-negative bacteria. The settings on record: MHC10/GM against Gram-negative bacteria. As to the method: as §1

Non-standard residues stand in square brackets, D forms with d. Residues, ends and D or L forms follow the SMILES beside them. No end group written: not given here.

Consider `N=C(N)NCCC[C@H](NC(=O)CNC(=O)[C@H]1CCCN1C(=O)[C@H](CCCNC(=N)N)NC(=O)[C@H](CCCNC(=N)N)NC(=O)[C@H](Cc1ccccc1)NC(=O)[C@H](Cc1ccccc1)NC(=O)[C@H](CCCNC(=N)N)NC(=O)[C@H](Cc1ccccc1)NC(=O)[C@@H](N)Cc1ccccc1)C(=O)N[C@@H](CCCNC(=N)N)C(=O)N[C@@H](Cc1ccccc1)C(=O)N[C@@H](Cc1ccccc1)C(=O)N[C@@H](CCCNC(=N)N)C(=O)N[C@@H](Cc1ccccc1)C(=O)N[C@@H](Cc1ccccc1)C(N)=O` [FRpG] (H-FFRFFRR[dP]GRRFFRFF-NH2), for which the “TI (+) (therapeutic index, MHC10/GM)” value with Gram-positive bacteria was found to be 5.7. The “TI (−) (therapeutic index, MHC10/GM)” value with Gram-negative bacteria is 9.2.
Take `CC[C@H](C)[C@H](N)C(=O)N[C@H](C(=O)N[C@@H](CCCNC(=N)N)C(=O)N[C@H](C(=O)N[C@H](C(=O)N[C@@H](CCCNC(=N)N)C(=O)N[C@@H](CCCNC(=N)N)C(=O)N1CCC[C@@H]1C(=O)NCC(=O)N[C@@H](CCCNC(=N)N)C(=O)N[C@@H](CCCNC(=N)N)C(=O)N[C@H](C(=O)N[C@H](C(=O)N[C@@H](CCCNC(=N)N)C(=O)N[C@H](C(=O)N[C@H](C(N)=O)[C@@H](C)CC)[C@@H](C)CC)[C@@H](C)CC)[C@@H](C)CC)[C@@H](C)CC)[C@@H](C)CC)[C@@H](C)CC` [IRpG] (H-IIRIIRR[dP]GRRIIRII-NH2): the “TI (+) (therapeutic index, MHC10/GM)” value with Gram-positive bacteria is 2. The “TI (−) (therapeutic index, MHC10/GM)” value in the series with Gram-negative bacteria turned out to be 32.
For `CC(C)C[C@H](NC(=O)[C@H](CC(C)C)NC(=O)[C@H](CCCNC(=N)N)NC(=O)[C@H](CC(C)C)NC(=O)[C@H](CC(C)C)NC(=O)[C@H](CCCNC(=N)N)NC(=O)[C@H](CCCNC(=N)N)NC(=O)CNC(=O)[C@H]1CCCN1C(=O)[C@H](CCCNC(=N)N)NC(=O)[C@H](CCCNC(=N)N)NC(=O)[C@H](CC(C)C)NC(=O)[C@H](CC(C)C)NC(=O)[C@H](CCCNC(=N)N)NC(=O)[C@H](CC(C)C)NC(=O)[C@@H](N)CC(C)C)C(N)=O` [LRpG] (H-LLRLLRR[dP]GRRLLRLL-NH2), the “TI (+) (therapeutic index, MHC10/GM)” value in the series with Gram-positive bacteria is on record as 13.5. Further, the “TI (−) (therapeutic index, MHC10/GM)” value with Gram-negative bacteria stood at 73.1.
The matching figures for `CC(C)C[C@H](NC(=O)CN)C(=O)N[C@@H](CCCNC(=N)N)C(=O)N[C@@H](CC(C)C)C(=O)N[C@@H](CC(C)C)C(=O)N[C@@H](CCCNC(=N)N)C(=O)N[C@@H](CCCNC(=N)N)C(=O)N[C@@H](CC(C)C)C(=O)N[C@@H](CC(C)C)C(=O)N[C@@H](CCCNC(=N)N)C(=O)N[C@@H](CCCNC(=N)N)C(=O)N[C@@H](CC(C)C)C(=O)N[C@@H](CC(C)C)C(=O)N[C@@H](CCCNC(=N)N)C(=O)N[C@@H](CC(C)C)C(=O)N1CCC[C@@H]1C(N)=O` [LRα] (H-GLRLLRRLLRRLLRL[dP]-NH2): 0.5 and 1.3.
The matching figures for FFRFFRRGGRRFFRFF-NH2 [FRGG]: 4.8 and 8.
Take IIRIIRRGGRRIIRII-NH2 [IRGG]: the “TI (+) (therapeutic index, MHC10/GM)” value with Gram-positive bacteria is 2. Moreover, the “TI (−) (therapeutic index, MHC10/GM)” value in the series on Gram-negative bacteria was 24.2.
Take LLRLLRRGGRRLLRLL-NH2 [LRGG]: in the series with Gram-positive bacteria, the “TI (+) (therapeutic index, MHC10/GM)” value is given as 11.2. Also, the “TI (−) (therapeutic index, MHC10/GM)” value in the series on Gram-negative bacteria is reported as 55.6.
